The list shows a part of the results. Most values lie at the level of the controls, where differences are scatter.

Protein sequences, listed by entry. Tags and fused reporters are not part of them. Lines headed by an entry give the natural chain unless they say otherwise; changes in a name come on top.
UniProt P54746: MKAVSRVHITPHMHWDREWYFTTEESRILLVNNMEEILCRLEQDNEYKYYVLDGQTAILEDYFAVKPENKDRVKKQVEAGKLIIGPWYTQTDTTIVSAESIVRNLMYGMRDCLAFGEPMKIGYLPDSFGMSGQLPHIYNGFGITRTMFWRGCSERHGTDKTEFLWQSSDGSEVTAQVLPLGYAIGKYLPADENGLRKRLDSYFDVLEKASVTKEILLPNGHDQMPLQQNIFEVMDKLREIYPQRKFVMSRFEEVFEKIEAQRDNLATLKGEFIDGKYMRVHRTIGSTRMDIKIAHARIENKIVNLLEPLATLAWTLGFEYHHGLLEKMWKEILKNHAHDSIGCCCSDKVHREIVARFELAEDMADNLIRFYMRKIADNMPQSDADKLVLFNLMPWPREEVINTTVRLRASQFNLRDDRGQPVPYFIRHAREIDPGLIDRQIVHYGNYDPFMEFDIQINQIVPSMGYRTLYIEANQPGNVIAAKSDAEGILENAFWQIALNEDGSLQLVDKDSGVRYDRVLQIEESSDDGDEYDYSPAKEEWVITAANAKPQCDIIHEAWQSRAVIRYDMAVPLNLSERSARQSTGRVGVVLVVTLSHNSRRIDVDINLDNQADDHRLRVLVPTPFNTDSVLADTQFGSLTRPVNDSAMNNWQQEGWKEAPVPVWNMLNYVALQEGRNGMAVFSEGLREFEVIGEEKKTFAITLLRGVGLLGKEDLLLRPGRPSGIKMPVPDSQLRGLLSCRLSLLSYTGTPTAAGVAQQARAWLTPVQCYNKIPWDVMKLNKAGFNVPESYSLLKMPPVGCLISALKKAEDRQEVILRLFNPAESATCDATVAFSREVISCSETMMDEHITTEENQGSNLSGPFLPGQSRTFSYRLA
UniProt P52126: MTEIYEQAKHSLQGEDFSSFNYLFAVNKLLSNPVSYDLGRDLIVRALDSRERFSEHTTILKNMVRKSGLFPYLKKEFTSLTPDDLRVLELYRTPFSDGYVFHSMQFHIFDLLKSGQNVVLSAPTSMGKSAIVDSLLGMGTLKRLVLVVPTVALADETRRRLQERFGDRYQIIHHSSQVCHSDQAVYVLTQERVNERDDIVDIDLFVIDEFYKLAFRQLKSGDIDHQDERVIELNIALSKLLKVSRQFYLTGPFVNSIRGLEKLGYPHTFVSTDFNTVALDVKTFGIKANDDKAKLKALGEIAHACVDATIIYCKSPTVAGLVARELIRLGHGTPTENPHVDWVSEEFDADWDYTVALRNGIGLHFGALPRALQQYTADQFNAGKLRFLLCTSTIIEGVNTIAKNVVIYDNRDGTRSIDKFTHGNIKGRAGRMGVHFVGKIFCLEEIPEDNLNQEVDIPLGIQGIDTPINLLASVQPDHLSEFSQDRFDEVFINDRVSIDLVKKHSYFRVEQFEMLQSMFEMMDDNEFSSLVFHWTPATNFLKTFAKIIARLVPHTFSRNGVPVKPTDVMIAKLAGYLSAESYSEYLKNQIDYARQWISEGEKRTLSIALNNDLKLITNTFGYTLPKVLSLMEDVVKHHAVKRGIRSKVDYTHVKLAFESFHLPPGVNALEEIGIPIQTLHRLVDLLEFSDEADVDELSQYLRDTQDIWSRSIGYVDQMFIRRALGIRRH
UniProt P50456: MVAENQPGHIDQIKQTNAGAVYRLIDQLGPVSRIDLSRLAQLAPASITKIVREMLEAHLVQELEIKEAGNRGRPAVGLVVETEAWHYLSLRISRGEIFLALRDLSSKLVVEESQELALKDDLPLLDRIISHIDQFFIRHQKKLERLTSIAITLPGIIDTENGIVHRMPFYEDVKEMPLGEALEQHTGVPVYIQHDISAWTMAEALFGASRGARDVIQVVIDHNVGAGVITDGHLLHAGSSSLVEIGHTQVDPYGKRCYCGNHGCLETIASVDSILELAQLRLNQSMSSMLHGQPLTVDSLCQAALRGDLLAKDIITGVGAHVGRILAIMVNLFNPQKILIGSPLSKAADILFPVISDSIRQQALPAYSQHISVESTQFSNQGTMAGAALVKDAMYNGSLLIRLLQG
UniProt P52614: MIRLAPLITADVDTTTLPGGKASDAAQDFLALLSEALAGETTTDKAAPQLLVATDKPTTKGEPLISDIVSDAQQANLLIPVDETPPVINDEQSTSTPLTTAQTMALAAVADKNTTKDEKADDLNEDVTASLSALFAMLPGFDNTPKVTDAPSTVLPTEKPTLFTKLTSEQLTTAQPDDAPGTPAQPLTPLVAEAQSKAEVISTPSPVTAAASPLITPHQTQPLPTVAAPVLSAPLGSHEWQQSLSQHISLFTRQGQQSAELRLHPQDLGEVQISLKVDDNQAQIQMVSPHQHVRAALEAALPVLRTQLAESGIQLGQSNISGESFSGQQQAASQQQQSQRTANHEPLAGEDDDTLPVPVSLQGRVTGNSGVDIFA
UniProt P46883: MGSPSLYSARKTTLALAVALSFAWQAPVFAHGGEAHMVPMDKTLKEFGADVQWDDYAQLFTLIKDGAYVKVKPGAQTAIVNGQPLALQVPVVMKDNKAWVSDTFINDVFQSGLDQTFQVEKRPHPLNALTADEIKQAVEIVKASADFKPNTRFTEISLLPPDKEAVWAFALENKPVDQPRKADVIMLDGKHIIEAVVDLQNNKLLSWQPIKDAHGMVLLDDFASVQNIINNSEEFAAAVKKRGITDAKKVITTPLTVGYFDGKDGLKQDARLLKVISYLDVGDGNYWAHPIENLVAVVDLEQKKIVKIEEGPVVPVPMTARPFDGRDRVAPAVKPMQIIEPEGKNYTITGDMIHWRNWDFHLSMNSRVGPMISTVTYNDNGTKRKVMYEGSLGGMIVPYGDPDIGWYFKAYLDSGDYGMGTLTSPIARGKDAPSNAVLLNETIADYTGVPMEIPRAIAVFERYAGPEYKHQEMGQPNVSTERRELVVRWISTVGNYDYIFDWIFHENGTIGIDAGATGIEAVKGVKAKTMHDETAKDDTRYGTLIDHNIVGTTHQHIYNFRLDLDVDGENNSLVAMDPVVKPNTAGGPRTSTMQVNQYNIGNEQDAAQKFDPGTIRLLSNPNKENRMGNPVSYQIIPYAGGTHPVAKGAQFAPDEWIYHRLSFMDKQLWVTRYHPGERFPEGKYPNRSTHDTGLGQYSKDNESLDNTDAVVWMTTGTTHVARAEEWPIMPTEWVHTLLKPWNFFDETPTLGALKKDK
UniProt P64588: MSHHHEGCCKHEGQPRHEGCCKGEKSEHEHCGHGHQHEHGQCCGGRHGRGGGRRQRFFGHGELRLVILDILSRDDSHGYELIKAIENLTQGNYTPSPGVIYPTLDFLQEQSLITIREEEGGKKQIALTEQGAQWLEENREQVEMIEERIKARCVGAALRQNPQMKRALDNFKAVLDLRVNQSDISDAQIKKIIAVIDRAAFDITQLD
UniProt P46068: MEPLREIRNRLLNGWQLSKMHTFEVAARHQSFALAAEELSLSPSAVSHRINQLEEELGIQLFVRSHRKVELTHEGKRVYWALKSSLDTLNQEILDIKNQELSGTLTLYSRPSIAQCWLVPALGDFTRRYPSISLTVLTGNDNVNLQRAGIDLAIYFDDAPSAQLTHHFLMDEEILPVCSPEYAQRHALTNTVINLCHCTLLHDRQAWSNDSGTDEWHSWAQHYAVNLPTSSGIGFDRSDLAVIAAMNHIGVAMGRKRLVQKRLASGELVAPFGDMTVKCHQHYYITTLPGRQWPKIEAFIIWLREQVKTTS
UniProt P75823: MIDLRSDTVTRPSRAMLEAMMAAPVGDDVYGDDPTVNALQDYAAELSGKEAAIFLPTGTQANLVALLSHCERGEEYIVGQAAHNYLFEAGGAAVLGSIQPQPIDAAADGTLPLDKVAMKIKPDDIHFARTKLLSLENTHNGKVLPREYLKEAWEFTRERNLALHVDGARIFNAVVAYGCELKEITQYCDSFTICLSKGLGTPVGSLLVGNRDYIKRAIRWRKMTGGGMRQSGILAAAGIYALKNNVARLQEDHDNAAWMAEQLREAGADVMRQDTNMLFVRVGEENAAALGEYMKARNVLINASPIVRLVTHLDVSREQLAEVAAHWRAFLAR
UniProt P75713: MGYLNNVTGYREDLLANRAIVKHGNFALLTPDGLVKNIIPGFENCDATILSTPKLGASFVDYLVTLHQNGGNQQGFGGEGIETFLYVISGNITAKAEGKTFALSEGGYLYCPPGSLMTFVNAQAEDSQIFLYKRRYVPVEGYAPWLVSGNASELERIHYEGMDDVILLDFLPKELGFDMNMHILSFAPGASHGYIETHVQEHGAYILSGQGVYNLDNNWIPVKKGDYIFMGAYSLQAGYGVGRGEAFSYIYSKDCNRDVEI
UniProt P75764: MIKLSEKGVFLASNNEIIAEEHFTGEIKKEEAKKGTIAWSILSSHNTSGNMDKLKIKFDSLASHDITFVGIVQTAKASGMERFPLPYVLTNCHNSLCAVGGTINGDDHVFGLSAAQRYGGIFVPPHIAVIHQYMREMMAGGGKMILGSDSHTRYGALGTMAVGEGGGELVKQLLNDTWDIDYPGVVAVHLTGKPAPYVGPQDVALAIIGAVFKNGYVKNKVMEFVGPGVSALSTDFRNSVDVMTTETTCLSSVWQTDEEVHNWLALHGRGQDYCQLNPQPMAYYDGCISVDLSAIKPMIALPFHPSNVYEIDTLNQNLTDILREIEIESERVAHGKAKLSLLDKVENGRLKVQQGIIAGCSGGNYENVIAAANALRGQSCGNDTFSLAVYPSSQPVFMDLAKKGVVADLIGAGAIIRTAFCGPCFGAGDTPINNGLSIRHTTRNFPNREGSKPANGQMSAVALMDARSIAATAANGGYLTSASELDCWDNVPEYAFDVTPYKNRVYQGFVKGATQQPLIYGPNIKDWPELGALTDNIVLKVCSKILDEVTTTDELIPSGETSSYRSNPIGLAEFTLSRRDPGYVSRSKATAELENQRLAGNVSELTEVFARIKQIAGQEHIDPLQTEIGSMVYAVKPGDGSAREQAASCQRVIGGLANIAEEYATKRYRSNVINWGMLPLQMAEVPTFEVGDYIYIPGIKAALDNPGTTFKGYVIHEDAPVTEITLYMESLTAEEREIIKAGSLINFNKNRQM
UniProt P75678: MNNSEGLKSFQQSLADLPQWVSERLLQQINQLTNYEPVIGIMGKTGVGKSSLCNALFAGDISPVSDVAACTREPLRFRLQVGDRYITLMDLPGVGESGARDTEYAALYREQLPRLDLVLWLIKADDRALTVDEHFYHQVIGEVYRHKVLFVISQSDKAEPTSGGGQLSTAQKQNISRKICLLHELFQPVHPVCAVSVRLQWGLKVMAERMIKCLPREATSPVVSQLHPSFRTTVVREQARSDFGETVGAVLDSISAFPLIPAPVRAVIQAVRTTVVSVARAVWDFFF
UniProt P56256: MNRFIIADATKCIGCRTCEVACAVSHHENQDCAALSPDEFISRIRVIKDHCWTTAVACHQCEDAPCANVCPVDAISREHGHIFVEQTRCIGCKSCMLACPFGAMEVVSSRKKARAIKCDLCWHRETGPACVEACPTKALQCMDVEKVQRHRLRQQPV
UniProt P75804: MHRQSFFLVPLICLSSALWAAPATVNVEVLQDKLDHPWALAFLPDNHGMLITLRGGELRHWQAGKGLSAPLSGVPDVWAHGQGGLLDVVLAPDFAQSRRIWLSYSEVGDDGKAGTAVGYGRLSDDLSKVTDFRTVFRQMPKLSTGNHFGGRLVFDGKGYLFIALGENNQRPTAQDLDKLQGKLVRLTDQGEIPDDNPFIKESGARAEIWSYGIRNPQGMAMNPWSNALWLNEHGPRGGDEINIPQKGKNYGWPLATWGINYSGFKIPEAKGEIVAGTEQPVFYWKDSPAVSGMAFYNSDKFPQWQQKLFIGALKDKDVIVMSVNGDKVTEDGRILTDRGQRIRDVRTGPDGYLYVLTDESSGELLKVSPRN
UniProt P66948: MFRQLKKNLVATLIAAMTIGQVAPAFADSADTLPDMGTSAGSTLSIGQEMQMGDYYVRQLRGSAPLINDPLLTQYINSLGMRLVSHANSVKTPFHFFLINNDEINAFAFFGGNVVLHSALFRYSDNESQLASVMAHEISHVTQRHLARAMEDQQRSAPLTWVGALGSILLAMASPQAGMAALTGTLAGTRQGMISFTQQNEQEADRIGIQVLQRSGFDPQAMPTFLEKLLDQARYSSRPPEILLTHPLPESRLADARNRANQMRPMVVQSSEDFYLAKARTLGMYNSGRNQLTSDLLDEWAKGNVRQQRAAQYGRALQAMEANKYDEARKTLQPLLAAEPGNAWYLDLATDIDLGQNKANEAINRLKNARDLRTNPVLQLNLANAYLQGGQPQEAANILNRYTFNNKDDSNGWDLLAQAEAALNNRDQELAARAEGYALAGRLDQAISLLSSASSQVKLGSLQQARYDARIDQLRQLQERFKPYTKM
UniProt P45955: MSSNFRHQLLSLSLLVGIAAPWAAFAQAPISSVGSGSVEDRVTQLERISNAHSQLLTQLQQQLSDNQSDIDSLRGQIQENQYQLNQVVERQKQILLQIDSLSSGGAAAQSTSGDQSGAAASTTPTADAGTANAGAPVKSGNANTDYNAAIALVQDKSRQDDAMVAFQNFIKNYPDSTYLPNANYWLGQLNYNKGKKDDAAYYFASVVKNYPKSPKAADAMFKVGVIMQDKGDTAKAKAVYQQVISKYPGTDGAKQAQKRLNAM

Compound in the test: CC1(C)S[C@@H]2[C@H](NC(=O)[C@H](N)c3ccccc3)C(=O)N2[C@H]1C(=O)O [ampicillin]
Nature of the test: log2 fold change of tryptic peptide abundance, ligand vs vehicle (limited proteolysis) (log2 ratio); higher = more trypsin-susceptible (destabilized). Particulars: ligand concentration: 10 uM; sample: E. coli crude lysate.
Turning to “UniProt P75821 (peptide sequence: NAVEFLCQK, peptide start residue: 15)”, the log2 fold change came out at 0.164.

Regarding “UniProt P54746 (peptide sequence: GVGLLGK, peptide start residue: 706)”, the log2 fold change is -0.0929.

For the target “UniProt P52129 (peptide sequence: QEDGKANIVQQEVAR, peptide start residue: 194)”, the log2 fold change is -0.176.

Turning to “UniProt P52126 (peptide sequence: SIDKFTHGNIK, peptide start residue: 416)”, the log2 fold change stood at 0.805.

Regarding “UniProt P46837 (peptide sequence: FVEDPHTVVK, peptide start residue: 687)”, the log2 fold change was 0.125.

“UniProt P63235 (peptide sequence: GHFFLHPR, peptide start residue: 490)”: the log2 fold change was found to be 0.342.

As for “UniProt P75828 (peptide sequence: QGFSDVFHR, peptide start residue: 480)”, the log2 fold change is -0.503.

For the target “UniProt P52101 (peptide sequence: AMIFEPFFQGSHQR, peptide start residue: 414)”, the log2 fold change is -0.186.

For the target “UniProt P52127 (peptide sequence: QRVEDDQSR, peptide start residue: 240)”, the log2 fold change was determined as 0.973.

Regarding “UniProt P50456 (peptide sequence: QTNAGAVYR, peptide start residue: 15)”, the log2 fold change was 0.483.

Turning to “UniProt P52614 (peptide sequence: AAPQLLVATDKPTTK, peptide start residue: 46)”, the log2 fold change is -0.13.

Regarding “UniProt P46883 (peptide sequence: NWDFHLSMNSR, peptide start residue: 357)”, the log2 fold change is -0.755.

For the target “UniProt P64588 (peptide sequence: EQVEMIEER, peptide start residue: 140)”, the log2 fold change amounted to 0.143.

Regarding “UniProt P55138 (peptide sequence: YIIGIDGGSQSTK, peptide start residue: 5)”, the log2 fold change turned out to be 0.346.

Consider “UniProt P46068 (peptide sequence: HALTNTVINLCHCTLLHDR, peptide start residue: 186)”, for which the log2 fold change was found to be 0.289.

For “UniProt P75823 (peptide sequence: EQLAEVAAHWR, peptide start residue: 318)”, the log2 fold change was found to be 0.274.

Take “UniProt P46139 (peptide sequence: LQELADHNMYQAK, peptide start residue: 387)”: the log2 fold change was 0.113.

In the case of “UniProt P52612 (peptide sequence: GQHVLLIMDSLTR, peptide start residue: 264)”, the log2 fold change is -0.331.

In the case of “UniProt P71242 (peptide sequence: YQHQVLLSR, peptide start residue: 84)”, the log2 fold change was 0.32.

As to “UniProt P75713 (peptide sequence: HGNFALLTPDGLVK, peptide start residue: 23)”, the log2 fold change was -0.455.

On to “UniProt P75839 (peptide sequence: YKVVPESADYACIR, peptide start residue: 184)”, for which the log2 fold change came out at 0.289.

In the case of “UniProt P75764 (peptide sequence: EQAASCQR, peptide start residue: 644)”, the log2 fold change came out at 0.566.

As to “UniProt P75801 (peptide sequence: EAIINNHFER, peptide start residue: 263)”, the log2 fold change is 0.32.

Consider “UniProt P52061 (peptide sequence: FHCVLVYLR, peptide start residue: 118)”, for which the log2 fold change is -0.216.

Consider “UniProt P52132 (peptide sequence: FGAANLIR, peptide start residue: 8)”, for which the log2 fold change was found to be 0.0553.

Turning to “UniProt P75820 (peptide sequence: EGYQLDTR, peptide start residue: 27)”, the log2 fold change came to 0.52.

Turning to “UniProt P75678 (peptide sequence: EATSPVVSQLHPSFR, peptide start residue: 217)”, the log2 fold change was -0.213.

Turning to “UniProt P56256 (peptide sequence: CDLCWHR, peptide start residue: 118)”, the log2 fold change amounted to 0.156.

For “UniProt P75804 (peptide sequence: DVIVMSVNGDK, peptide start residue: 317)”, the log2 fold change stood at 0.136.

Turning to “UniProt P75767 (peptide sequence: VVALGGGHGLGR, peptide start residue: 12)”, the log2 fold change was 0.255.

Consider “UniProt P75830 (peptide sequence: NDTDVEIVK, peptide start residue: 344)”, for which the log2 fold change is 0.223.

Take “UniProt P66948 (peptide sequence: FKPYTKM, peptide start residue: 481)”: the log2 fold change is -0.168.

For the target “UniProt P45955 (peptide sequence: VGVIMQDK, peptide start residue: 223)”, the log2 fold change is 0.158.

The values are drawn from the supplement of paper PMC12819154, “High-throughput peptide-centric local stability assay extends protein–ligand identification to membrane proteins, tissues and bacteria” (Nature Structural & Molecular Biology, 2025).
